From publication PMC4446434, “A prophage-encoded actin-like protein required for efficient viral DNA replication in bacteria” (Nucleic Acids Research, 2015)
Construct, isoform or probe ends are uncertain for at least one entry. For some of these results: A negative result means that nothing was seen under these conditions. For some of these results: Where a protein sequence is shown, tags need not be part of it.

Columns and labels:
[1] = system: T1, AlpA (Cg1891); assay: EMSA; settings: EMSA: 20 mM Tris/HCl pH 7.5, 50 mM KCl, 10 mM MgCl2, 5% glycerol, 0.5 mM EDTA, 0.005% Triton X-100, 100 ng DNA, 20 min, temperature not stated, native 10% PAGE, recombinant protein, protein details: N-terminal His10 (pET-TEV), probe letters rebuilt from the primers and the genome
T1 sequence (looked up, limits assumed): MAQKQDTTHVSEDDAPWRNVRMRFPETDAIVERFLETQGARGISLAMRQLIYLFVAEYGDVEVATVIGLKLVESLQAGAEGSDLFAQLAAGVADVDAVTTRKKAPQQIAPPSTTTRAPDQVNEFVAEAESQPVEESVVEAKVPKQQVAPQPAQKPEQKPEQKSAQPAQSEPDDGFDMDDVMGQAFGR

[2] = system: AlpA (Cg1891) + AlpC (Cg1890); assay: EMSA supershift; settings: ATP, AlpA 200-fold, AlpC 30-fold molar excess; EMSA: 20 mM Tris/HCl pH 7.5, 50 mM KCl, 10 mM MgCl2, 5% glycerol, 0.5 mM EDTA, 0.005% Triton X-100; 100 ng DNA, 20 min, temperature not stated; native 10% PAGE; recombinant protein; protein details: N-terminal His10 (pET-TEV),His10 (pET16b); probe letters rebuilt from the primers and the genome

CACTTCCAAGGAAGATACACGCCCGAAGAAGCTCCGTTAATGGACGCTCTTCTATTAAGCCTTTTCTGATGGATACAAGCAGAGAATCAGTCATGCTAAATATCATAATCCATCAAACATTTGATCGGTGTCAATCAATGCGTTCTGGACTGAGGTGACCACCATGCAAGACGAGGTGGACCTAGTGATCACCAACCCGCCGTTTTCTCTGTTCCGTGAGTTCCTGAGTTGGCTATTACACGGTGACGTGTTGTTTTCTATCATCGGTAACGCGAACGTAATCACATATCTAGGTGCCTGAATCTAGATTAAAACTATAAACATTATTTAAAACCATTGCCTTATTGGAGCATGCTGCAAGCTTTTCGCGGTGGGCTTGCAACATCTTACATCAGAATGAATGATGTTAAACACCTAATAAGTTCAAGTAGTTAAAAGGAAATATCAACAATGTTACGAAAAGCATCTATCACGCTAATGATATCCGTTACGCTCTTAACAT (double strand) [cg2036 promoter control]
binding result ([1]; up to 500-fold molar excess AlpA, control named cg2036 in Methods/legend, cg2040 in Results): no binding

CTGGGGGCTAGAGCGCGCCAAAGAAAACACAGAGCAACCACCATTGCAGCAGTGCTGCAATGGTGGTTGTTTTTTTGGCACAGTCTCAGGCTGTGTTCGATGAGTGCAACATCAGCAGCAATCCCATTCGAGCAGTCAATGACCACGGGGACGAGCCCCGAGGTTTTCTCGCACATTATTCATAAAAAAAATTGCCAACCTGTGCTTAGATCAACCGCGAAAGAAAAGGAACACGGTAAAGCAACAGACTGGCAATCTTCCACACAGGTATTCGACGAGGGGTTTGGGGAACCAAGGGAACGAACATCTGCGAGATACTTAAGCTTGGGACGACACTCCCTCACTAGAGAACCTGTTACTAGTGTAACAAAGTTAAAACCAATACTCAATAAGATTCTCTAGTTTAAAATACCTAGTTCTTAGATGAAGTTTGAAACTTCATCTAAGAACTAGGTATTAATTACTTGCGTGCTTTCGCTGCAATCGAGCGTGCCGCAATCATAAGTCCTT (double strand) [alpC downstream region]
binding result ([1]; up to 500-fold molar excess AlpA): no binding

TGTCATGGTGGGGCTCCATTAGTTAACTATTAAATAGTTATTTAATCGACCGCTAGGGGTTTATTACCTGCCTGCTTAAGTGCACGTTAGGCGTGTTTTAAGGGCTTGTTAAAAGTGCCTTAAAAGGCAGATAACGGTCGATTATCGGTACATAGGGGATTGTGCTGTTAGTGGTTGTTTAAAAGCCCTTTAAGAAACGATTAATTGTTTTTTACGGGTTAATTATTAATTGACACATAAGTGCCTTTTAAAAGTACGTTAATTGCTTTTTAATTGTCTTTTAAAAGACACTTCTATGTTACTATTAAATTAGTCAATAACGTTAGTCATAAACAATGCAGTTATTGAAGAGAAACTTCCCGACACAATGTACGAAATGGGGGTCACACATGGCTCAAAAACAGGACACGACACATGTATCAGAGGACGATGCCCCGTGGCGTAATGTGCGTATGCGCTTCCCAGAAACAGACGCTATCGTTGAGCGGTTTTTGGAAACACA (double strand) [alpA upstream region (alpAC promoter, alpS)]
binding result ([1]; 200- and 500-fold molar excess AlpA, smear): binds
binding result [2]: binds
